# PubChem BioAssay AID720617 (Broad Institute, 2013)
# This is one part of the list. Shown are side measurements of this screen, not its main read-out; they come without a call.
# Assay: viability loss in CCRF-CEM T-lymphoblasts – cell-based, Alamar Blue fluorescence, several timepoints, dry powder, mechanism study for HRAS target identification, late-stage follow-up (AID 720617)
# Settings: measured here: 8 h treatment viability, at 35 µM, stronger effect = lower value
row,SMILES,activity change [%]
1,COC(=O)c1ccc([C@@H]2c3[nH]c4ccccc4c3C[C@@H](C(=O)OC)N2C(=O)CCl)cc1,-5.09
2,COc1ccc(N(C(=O)CCl)C(C(=O)NCCc2ccccc2)c2cccs2)cc1Cl (stereo not given),-10.2
3,C#CCCCC(=O)NCCOCCOCCOc1ccc(N(C(=O)CCl)C(C(=O)NCCc2ccccc2)c2cccs2)cc1Cl (stereo not given),-7.28
4,CC(C)(C)OC(=O)NCCOCCOCCOc1ccc(N(C(=O)CCl)C(C(=O)NCCc2ccccc2)c2cccs2)cc1Cl (stereo not given),-13
5,Cc1onc(C(=O)N2CCN(C(c3ccc(Cl)cc3)c3ccc(Cl)cc3)CC2)c1[N+](=O)[O-],-10.9
